Reference: PMC9780108 (Cell Reports. Physical Science, 2022)
Strings that start with PEPTIDE1 are HELM notation: dots part the residues, brackets hold end groups and non-standard residues.

Assay: general procedure: Fmoc solid-phase peptide synthesis; TentaGel S RAM resin (0.22 mmol/g); Rink Amide MBHA resin (0.25 mmol/g) on synthesizer; DIC/OxymaPure
Details: whole synthesis

Substance	isolated mass (scale 0.08 mmol)	isolated yield (scale 0.08 mmol)	other results
(AhxL)8(KLK)4(KLL)2KLLL			isolated mass (scale 0.09 mmol, run 1): 91.2 mg; isolated yield (scale 0.09 mmol, run 1): 19.5%; isolated mass (scale 0.09 mmol, run 2): 106.3 mg; isolated yield (scale 0.09 mmol, run 2): 22.7%
PEPTIDE1{K.L.K.K.L.K.L.L.K.K.L.L.[am]}|PEPTIDE2{K.L.K.K.L.K.L.L}|PEPTIDE3{K.L.K.K.L}|PEPTIDE4{K.L.K.K.L}|PEPTIDE5{K.L}|PEPTIDE6{K.L}|PEPTIDE7{K.L}|PEPTIDE8{K.L}$PEPTIDE1,PEPTIDE2,9:R3-8:R2|PEPTIDE1,PEPTIDE3,6:R3-5:R2|PEPTIDE2,PEPTIDE4,6:R3-5:R2|PEPTIDE1,PEPTIDE5,3:R3-2:R2|PEPTIDE2,PEPTIDE6,3:R3-2:R2|PEPTIDE3,PEPTIDE7,3:R3-2:R2|PEPTIDE4,PEPTIDE8,3:R3-2:R2$$$V2.0	40.3 mg	7.2%	
PEPTIDE1{K.L.K.L.K.K.L.L.K.L.K.K.[am]}|PEPTIDE2{K.L.K.L.K.K.L.L}|PEPTIDE3{K.L.K.L}|PEPTIDE4{K.L.K.L}|PEPTIDE5{K.L}|PEPTIDE6{K.L}|PEPTIDE7{K.L}|PEPTIDE8{K.L}$PEPTIDE1,PEPTIDE2,9:R3-8:R2|PEPTIDE1,PEPTIDE3,5:R3-4:R2|PEPTIDE2,PEPTIDE4,5:R3-4:R2|PEPTIDE1,PEPTIDE5,3:R3-2:R2|PEPTIDE2,PEPTIDE6,3:R3-2:R2|PEPTIDE3,PEPTIDE7,3:R3-2:R2|PEPTIDE4,PEPTIDE8,3:R3-2:R2$$$V2.0	37.4 mg	7.0%	
PEPTIDE1{K.L.K.L.K.K.L.L.K.L.L.L.[am]}|PEPTIDE2{K.L.K.L.K.K.L.L}|PEPTIDE3{K.L.K.L.K}|PEPTIDE4{K.L.K.L.K}|PEPTIDE5{K.L}|PEPTIDE6{K.L}|PEPTIDE7{K.L}|PEPTIDE8{K.L}$PEPTIDE1,PEPTIDE2,9:R3-8:R2|PEPTIDE1,PEPTIDE3,6:R3-5:R2|PEPTIDE2,PEPTIDE4,6:R3-5:R2|PEPTIDE1,PEPTIDE5,3:R3-2:R2|PEPTIDE2,PEPTIDE6,3:R3-2:R2|PEPTIDE3,PEPTIDE7,3:R3-2:R2|PEPTIDE4,PEPTIDE8,3:R3-2:R2$$$V2.0			isolated mass (scale 0.09 mmol): 187.0 mg; isolated yield (scale 0.09 mmol): 34.0%
PEPTIDE1{[dK].[dL].[dK].[dK].[dL].[dK].[dL].[dL].[dK].[dK].[dL].[dL].[am]}|PEPTIDE2{[dK].[dL].[dK].[dK].[dL].[dK].[dL].[dL]}|PEPTIDE3{[dK].[dL].[dK].[dK].[dL]}|PEPTIDE4{[dK].[dL].[dK].[dK].[dL]}|PEPTIDE5{[dK].[dL]}|PEPTIDE6{[dK].[dL]}|PEPTIDE7{[dK].[dL]}|PEPTIDE8{[dK].[dL]}$PEPTIDE1,PEPTIDE2,9:R3-8:R2|PEPTIDE1,PEPTIDE3,6:R3-5:R2|PEPTIDE2,PEPTIDE4,6:R3-5:R2|PEPTIDE1,PEPTIDE5,3:R3-2:R2|PEPTIDE2,PEPTIDE6,3:R3-2:R2|PEPTIDE3,PEPTIDE7,3:R3-2:R2|PEPTIDE4,PEPTIDE8,3:R3-2:R2$$$V2.0	85.5 mg	15.3%	
PEPTIDE1{[dK].[dL].[dK].[dL].[dK].[dK].[dL].[dL].[dK].[dL].[dK].[dK].[am]}|PEPTIDE2{[dK].[dL].[dK].[dL].[dK].[dK].[dL].[dL]}|PEPTIDE3{[dK].[dL].[dK].[dL]}|PEPTIDE4{[dK].[dL].[dK].[dL]}|PEPTIDE5{[dK].[dL]}|PEPTIDE6{[dK].[dL]}|PEPTIDE7{[dK].[dL]}|PEPTIDE8{[dK].[dL]}$PEPTIDE1,PEPTIDE2,9:R3-8:R2|PEPTIDE1,PEPTIDE3,5:R3-4:R2|PEPTIDE2,PEPTIDE4,5:R3-4:R2|PEPTIDE1,PEPTIDE5,3:R3-2:R2|PEPTIDE2,PEPTIDE6,3:R3-2:R2|PEPTIDE3,PEPTIDE7,3:R3-2:R2|PEPTIDE4,PEPTIDE8,3:R3-2:R2$$$V2.0	171.2 mg	32.2%	
PEPTIDE1{[dK].[dL].[dK].[dL].[dK].[dK].[dL].[dL].[dK].[dL].[dL].[dL].[am]}|PEPTIDE2{[dK].[dL].[dK].[dL].[dK].[dK].[dL].[dL]}|PEPTIDE3{[dK].[dL].[dK].[dL].[dK]}|PEPTIDE4{[dK].[dL].[dK].[dL].[dK]}|PEPTIDE5{[dK].[dL]}|PEPTIDE6{[dK].[dL]}|PEPTIDE7{[dK].[dL]}|PEPTIDE8{[dK].[dL]}$PEPTIDE1,PEPTIDE2,9:R3-8:R2|PEPTIDE1,PEPTIDE3,6:R3-5:R2|PEPTIDE2,PEPTIDE4,6:R3-5:R2|PEPTIDE1,PEPTIDE5,3:R3-2:R2|PEPTIDE2,PEPTIDE6,3:R3-2:R2|PEPTIDE3,PEPTIDE7,3:R3-2:R2|PEPTIDE4,PEPTIDE8,3:R3-2:R2$$$V2.0			isolated mass (scale 0.09 mmol): 112.9 mg; isolated yield (scale 0.09 mmol): 20.5%
